Data published in US20190111080A1 (PRECIGEN, published 2019).

Sequences of proteins named here, by UniProt entry; tags and fusion partners are left off. Residues count along the entry.
UniProt P20138, 18-259: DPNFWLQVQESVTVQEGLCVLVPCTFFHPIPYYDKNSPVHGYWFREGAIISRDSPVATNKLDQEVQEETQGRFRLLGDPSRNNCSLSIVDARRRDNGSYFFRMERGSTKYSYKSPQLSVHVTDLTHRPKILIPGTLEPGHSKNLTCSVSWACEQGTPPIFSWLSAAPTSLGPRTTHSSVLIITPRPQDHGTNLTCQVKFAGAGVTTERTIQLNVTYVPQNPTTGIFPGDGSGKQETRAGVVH

B1: CD33-specific chimeric antigen receptor with CD8α hinge (CD8 1X) spacer (receptor)
chain: DIQMTQSPSSLSASVGDRVTITCRASESVDNYGISFMNWFQQKPGKAPKLLIYAASNQGSGVPSRFSGSGSGTDFTLTISSLQPDDFATYYCQQSKEVPWTFGQGTKVEIKGGGGSGGGGSGGGGSQVQLVQSGAEVKKPGSSVKVSCKASGYTFTDYNMHWVRQAPGQGLEWIGYIYPYNGGTGYNQKFKSKATITADESTNTAYMELSSLRSEDTAVYYCARGRPAMDYWGQGTLVTVSSKPTTTPAPRPPTPAPTIASQPLSLRPEACRPAAGGAVHTRGLDFACDIYIWAPLAGTCGVLLLSLVITLYCNHRNKRGRKKLLYIFKQPFMRPVQTTQEEDGCSCRFPEEEEGGCELRVKFSRSADAPAYQQGQNQLYNELNLGRREEYDVLDKRRGRDPEMGGKPRRKNPQEGLYNELQKDKMAEAYSEIGMKGERRRGKGHDGLYQGLSTATKDTYDALHMQALPPR
notes: also called CD33 CAR CD8-1X
B2: CD33-specific chimeric antigen receptor with CD8 3X spacer (receptor)
chain: DIQMTQSPSSLSASVGDRVTITCRASESVDNYGISFMNWFQQKPGKAPKLLIYAASNQGSGVPSRFSGSGSGTDFTLTISSLQPDDFATYYCQQSKEVPWTFGQGTKVEIKGGGGSGGGGSGGGGSQVQLVQSGAEVKKPGSSVKVSCKASGYTFTDYNMHWVRQAPGQGLEWIGYIYPYNGGTGYNQKFKSKATITADESTNTAYMELSSLRSEDTAVYYCARGRPAMDYWGQGTLVTVSSKPTTTPAPRPPTPAPTIASQPLSLRPEASRPAAGGAVHTRGLDFASDKPTTTPAPRPPTPAPTIASQPLSLRPEASRPAAGGAVHTRGLDFASDKPTTTPAPRPPTPAPTIASQPLSLRPEACRPAAGGAVHTRGLDFACDIYIWAPLAGTCGVLLLSLVITLYCNHRNKRGRKKLLYIFKQPFMRPVQTTQEEDGCSCRFPEEEEGGCELRVKFSRSADAPAYQQGQNQLYNELNLGRREEYDVLDKRRGRDPEMGGKPRRKNPQEGLYNELQKDKMAEAYSEIGMKGERRRGKGHDGLYQGLSTATKDTYDALHMQALPPR
notes: Expressed on human T cells; also called CD33 CAR CD8-3X
B3: CD33-specific chimeric antigen receptor with CD8 3X V2 spacer (receptor)
chain: DIQMTQSPSSLSASVGDRVTITCRASESVDNYGISFMNWFQQKPGKAPKLLIYAASNQGSGVPSRFSGSGSGTDFTLTISSLQPDDFATYYCQQSKEVPWTFGQGTKVEIKGGGGSGGGGSGGGGSQVQLVQSGAEVKKPGSSVKVSCKASGYTFTDYNMHWVRQAPGQGLEWIGYIYPYNGGTGYNQKFKSKATITADESTNTAYMELSSLRSEDTAVYYCARGRPAMDYWGQGTLVTVSSKPTTTPAPRPPTPAPTIASQPLSLRPEACRPAAGGAVHTRGLDFACDKPTTTPAPRPPTPAPTIASQPLSLRPEASRPAAGGAVHTRGLDFASDKPTTTPAPRPPTPAPTIASQPLSLRPEASRPAAGGAVHTRGLDFASDIYIWAPLAGTCGVLLLSLVITLYCNHRNKRGRKKLLYIFKQPFMRPVQTTQEEDGCSCRFPEEEEGGCELRVKFSRSADAPAYQQGQNQLYNELNLGRREEYDVLDKRRGRDPEMGGKPRRKNPQEGLYNELQKDKMAEAYSEIGMKGERRRGKGHDGLYQGLSTATKDTYDALHMQALPPR
notes: Nucleofected into human T cells; also called CD33 CAR CD8-3X V2; CD8-3×v2
B4: CD33-specific chimeric antigen receptor with CD8 2X spacer (receptor)
chain: DIQMTQSPSSLSASVGDRVTITCRASESVDNYGISFMNWFQQKPGKAPKLLIYAASNQGSGVPSRFSGSGSGTDFTLTISSLQPDDFATYYCQQSKEVPWTFGQGTKVEIKGGGGSGGGGSGGGGSQVQLVQSGAEVKKPGSSVKVSCKASGYTFTDYNMHWVRQAPGQGLEWIGYIYPYNGGTGYNQKFKSKATITADESTNTAYMELSSLRSEDTAVYYCARGRPAMDYWGQGTLVTVSSKPTTTPAPRPPTPAPTIASQPLSLRPEASRPAAGGAVHTRGLDFASDKPTTTPAPRPPTPAPTIASQPLSLRPEACRPAAGGAVHTRGLDFACDIYIWAPLAGTCGVLLLSLVITLYCNHRNKRGRKKLLYIFKQPFMRPVQTTQEEDGCSCRFPEEEEGGCELRVKFSRSADAPAYQQGQNQLYNELNLGRREEYDVLDKRRGRDPEMGGKPRRKNPQEGLYNELQKDKMAEAYSEIGMKGERRRGKGHDGLYQGLSTATKDTYDALHMQALPPR
notes: Expressed on human T cells; also called CD33 CAR CD8-2X
B5: CD33-specific chimeric antigen receptor with CD8 4X spacer (receptor)
chain: DIQMTQSPSSLSASVGDRVTITCRASESVDNYGISFMNWFQQKPGKAPKLLIYAASNQGSGVPSRFSGSGSGTDFTLTISSLQPDDFATYYCQQSKEVPWTFGQGTKVEIKGGGGSGGGGSGGGGSQVQLVQSGAEVKKPGSSVKVSCKASGYTFTDYNMHWVRQAPGQGLEWIGYIYPYNGGTGYNQKFKSKATITADESTNTAYMELSSLRSEDTAVYYCARGRPAMDYWGQGTLVTVSSKPTTTPAPRPPTPAPTIASQPLSLRPEASRPAAGGAVHTRGLDFASDKPTTTPAPRPPTPAPTIASQPLSLRPEASRPAAGGAVHTRGLDFASDKPTTTPAPRPPTPAPTIASQPLSLRPEASRPAAGGAVHTRGLDFASDKPTTTPAPRPPTPAPTIASQPLSLRPEACRPAAGGAVHTRGLDFACDIYIWAPLAGTCGVLLLSLVITLYCNHRNKRGRKKLLYIFKQPFMRPVQTTQEEDGCSCRFPEEEEGGCELRVKFSRSADAPAYQQGQNQLYNELNLGRREEYDVLDKRRGRDPEMGGKPRRKNPQEGLYNELQKDKMAEAYSEIGMKGERRRGKGHDGLYQGLSTATKDTYDALHMQALPPR
notes: Expressed on human T cells; also called CD33 CAR CD8-4X

What was measured:
[1] = molecular target: T1, recombinant CD33/Fc protein (UniProt P20138 18-259); experiment: flow cytometry, CAR-nucleofected T cells stained with recombinant CD33/Fc; donor #2
T1 construct: Staining reagent for flow cytometry; not shown: Fc part not described
Protocol: (§1) Briefly, CD33-specific CAR vectors were introduced into PBMC via electroporation, using a Sleeping Beauty-based transposon system to mediate genomic integration of the transposons. On day 0, 20 million PBMC were suspended in 100 μL of Amaxa human T cell Nucleofector solution (Cat. no. VPA-1002; Lonza, Basel, Switzerland) mixed with 15 μg of CAR transposon and 5 μg of SB transposase and electroporated. The following day (day 1) cells count and viability were measured followed by flow cytometry to quantify CAR expression. CAR-T cells were stimulated with either γ-irradiated (100 Gy) or mitomycin C treated AaPCs at a 1:1 ratio. The AaPC cells used were K562 cell line expressing CD33 antigen. CD33-CAR-T cells were expanded ex vivo by once weekly stimulation with the AaPCs at a 1:1 ratio. Cultures were maintained in IL-2 (50 IU/ml) and/or IL-21 (30 ng/ml). CD33-specific CAR expression was measured using recombinant CD33/Fc protein staining as detected by multi-parameter flow cytometry.

[2] = molecular target: T1, recombinant CD33/Fc protein; experiment: flow cytometry, CAR-nucleofected T cells stained with recombinant CD33/Fc; donor #1
Protocol: as §1

Binder | % CD3+ CAR+ [1] [%] | % CD3+ CAR+ [2] [%]
B1 | 74.3 | 50.4
B2 | 80 | 63.5
B3 | 9.03 | 19.5
B4 | 82.9 | 29.3
B5 | 80.7 | 63.6
